Data published in PubChem BioAssay AID504834 (National Center for Advancing Translational Sciences (NCATS), 2011).
Screen size: about 320,000 compounds; about 22,000 (6.9%) were called active. Inconclusive means that the source gave no clear call. Such entries were picked first, then a sample of the others. Calls follow the shape of the dose curve; as a rule, active = well fitted inhibition curve with a large enough effect; inconclusive = small, poorly fitted or top-dose-only effect, or another doubt; inactive = no such curve, though single readings can be large or run the other way. Potencies beside an inconclusive call are fits to weak or partial responses and may not hold up.

Assay: Primary qHTS for delayed death inhibitors of the malarial parasite plastid, 96 hour incubation
Conditions: P. falciparum luciferase reporter growth; series mostly up to 28.7 µM; activity change, negative = inhibition: at the top concentration
Outline: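 Cell-based qHTS: luciferase-tagged P. falciparum in erythrocytes (2% hematocrit, 0.05% parasitemia final) incubated with compounds for 96 hours, 37 C, 5% CO2; luciferase detection reagent then added and luminescence measured.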
% is scaled to controls: 0 for no effect and ±100 for the full control effect; potency is read from the fitted curve at half-maximal effect.

SMILES	Potency	activity change, negative = inhibition
COc1ccc(Nc2nc3ccccc3n3cnnc23)cc1Cl	inconclusive: 0.185 µM [inhibitor, full curve, poor fit]	
Cc1cc(=O)oc2cc(OCC(=O)OCC(=O)Nc3ccccc3F)ccc12		inactive: 2.33%
CCOc1ccccc1NC(=O)NC1Cc2ccccc2C1	active: 8.28 µM	
Cc1cc2nccc(-c3ccc(OCCCF)cc3)n2n1		inactive: 19.9%
Cc1nc(-c2ccc(F)cc2)c(CC(=O)N(C)CC(=O)Nc2ccccc2Br)s1	inconclusive: 18.5 µM [inhibitor, single point]	
NC(=O)c1ccc(NC(=O)c2ccc(CN3CCOCC3)cc2)cc1		inactive: 4.34%
O=C(C1CCOCC1)N1CCCC(N2CCN(c3cccc(C(F)(F)F)c3)CC2)C1 (stereo not given)		inactive: -18.3%
O=C(Nc1ccccc1)c1ccccc1N=Cc1cccc(O)c1		inactive: 15%
O=c1c2c(-c3cccs3)csc2ncn1/N=C/c1ccc(OC(F)F)cc1	inconclusive: 18.5 µM [inhibitor, single point]	
CCOC(=O)CN(C(=O)CSc1nnc(-c2ccncc2)n1CCCOC)c1ccccc1	inconclusive: 4.65 µM [inhibitor, partial curve, poor fit]	
COCCCNC(=O)Cn1cnc2sc(C)c(S(=O)(=O)N3CC(C)CC(C)C3)c2c1=O (stereo not given)	inconclusive: 18.5 µM [inhibitor, single point]	
Cc1cc(O)c(-c2cc(C(=O)NCc3ccc4c(c3)OCO4)[nH]n2)cc1C	inconclusive: 16.5 µM [inhibitor, single point]	
CCCCCN(C(=O)CCC(=O)OCc1cc(C)ccc1C)c1c(N)n(CCCC)c(=O)[nH]c1=O	inconclusive: 5.86 µM [inhibitor, partial curve, poor fit]	
O=C(COC(=O)c1ccccc1C(=O)N1CCN(c2ccccc2)CC1)NCc1ccccc1		inactive: -13.9%
CCOc1ccc(CCNC(=O)CCn2ccc3cc(S(=O)(=O)N4CCCC4)ccc32)cc1	inconclusive: 18.5 µM [inhibitor, single point]	
CC1(C)Cc2c(c(-c3ccccc3)nc(N3CCOCC3)c2C(N)=O)CO1	inconclusive: 18.5 µM [inhibitor, single point]	
CC(=O)Nc1cccc(-c2nc3ccc(NC(C)=O)cc3s2)c1		inactive: 3.79%
Cc1ccccc1NC(=O)Cn1c(=O)n(CC2CCCO2)c(=O)c2ccccc21 (stereo not given)	active: 2.33 µM	
CC(C)c1ccc(-n2c(-c3ccccc3)c[n+]3c2CCc2ccccc2-3)cc1	active: 0.828 µM	
CC(=O)N1Cc2cc(N)ccc2Oc2ccccc21	inconclusive: 18.5 µM [inhibitor, single point]	
O=C(CN1CCN(C/C=C/c2ccccc2)CC1)NC(=O)NC1CCCCC1		inactive: 0%
O=S(=O)(c1ccc2c(c1)OCCO2)C1CCC(O)CC1 (stereo not given)	inactive	
COCCOc1cc(NC(=O)c2cccc(OC)c2)c(Cl)cc1Cl	inconclusive: 2.94 µM [inhibitor, partial curve]	

SMILES	Potency	activity change, negative = inhibition
COc1ccc(OCC(=O)Nc2ccc3c(c2)nc(CN2CCN(C(C)=O)CC2)n3C)cc1	inconclusive: 13.1 µM [inhibitor, single point]	
CCc1nn2cc(C(=O)c3ccccc3O)cnc2c1-c1ccc(F)cc1	inconclusive: 18.5 µM [inhibitor, single point]	
CC(C(=O)Nc1ccc2c(c1)OCCO2)N(C)CC(=O)Nc1ccccc1Br (stereo not given)	inconclusive: 18.5 µM [inhibitor, single point]	
CC(C)(C)c1ccc(S(=O)(=O)N2CCC(CO)(CC3CCCCO3)CC2)cc1 (stereo not given)	inconclusive: 2.62 µM [inhibitor, partial curve, poor fit]	
CC(C)NC(=O)CN(C(=O)CCC(=O)Nc1nccs1)c1ccc2c(c1)OCO2	active: 13.1 µM	
N/C(=N\c1nc2c(c(=O)[nH]1)CCCC2)Nc1ccc(Oc2ccccc2)cc1	active: 8.28 µM	
COc1ccccc1-n1c(=O)c(C#N)c(-c2ccc([N+](=O)[O-])cc2)c2cc(C(=O)c3ccccc3O)cnc21	active: 1.85 µM	
CCN(CC(=O)NCc1ccc(Cl)cc1)S(=O)(=O)c1ccc(NC(C)=O)cc1		inactive: -6.55%
COc1ccc(CCNC(=O)C2CC(=O)N(C3CCCC3)C2)cc1OC (stereo not given)	inconclusive: 18.5 µM [inhibitor, single point]	
Cc1cccc2sc(N(CCN(C)C)C(=O)/C=C/c3cccs3)nc12	inconclusive: 10.4 µM [inhibitor, single point]	
CC1(C)Cc2c(cnn2-c2ccc(F)cc2)C(NC(=O)CCN2CCCC2=O)C1 (stereo not given)	inconclusive: 11.7 µM [inhibitor, single point]	
CC(=O)N1CCN(c2ccc(NC(=O)c3ccc(Cl)c(Cl)c3)cc2)CC1	inconclusive: 14.7 µM [inhibitor, single point]	
CC(C)Cn1c(-c2ccco2)csc1=Nc1cccnc1	inconclusive: 3.7 µM [inhibitor, full curve]	
S=c1[nH]nc(Cc2ccc(Br)cc2)n1/N=C/c1ccc(Cl)cc1	inconclusive: 18.5 µM [inhibitor, single point]	
COc1cccc(CNC(=O)Cn2ncn3cccc3c2=O)c1OC		inactive: 6.15%
CCC1(c2ccc(F)cc2)NC(=O)N(CC(=O)Nc2ccccc2Cl)C1=O (stereo not given)	inconclusive: 20.8 µM [inhibitor, single point]	
CCC1CCCCN1Cc1nc2c(c(=O)n(C)c(=O)n2C)n1Cc1ccccc1 (stereo not given)	active: 7.38 µM	
CN1C(=O)N(CC(=O)Nc2nccs2)C(=O)C12CCCCC2		inactive: 36.8%
O=C(O)c1ccc(-c2ccc(O)c(F)c2)cc1	inconclusive: 18.5 µM [inhibitor, single point]	
CCc1nnc(NC(=O)CSc2nnc(-c3ccco3)o2)s1	inconclusive: 3.29 µM [inhibitor, partial curve]	
Clc1ccc(-c2nnc3sc(-c4ccco4)nn23)c(Cl)c1	inconclusive: 0.329 µM [inhibitor, full curve, poor fit]	
CC(NC(=O)c1ccco1)C12CC3CC(CC(C3)C1)C2 (stereo not given)	inconclusive: 10.4 µM [inhibitor, single point]	

2 entries drawn at random from those above, as already listed:
SMILES	Potency	activity change, negative = inhibition
Cc1cccc2sc(N(CCN(C)C)C(=O)/C=C/c3cccs3)nc12	inconclusive: 10.4 µM [inhibitor, single point]	
COc1ccc(OCC(=O)Nc2ccc3c(c2)nc(CN2CCN(C(C)=O)CC2)n3C)cc1	inconclusive: 13.1 µM [inhibitor, single point]	
